Laboratory results: paper doi:10.1101/2021.12.13.472398
These are yes or no findings as the source states them, for the method shown. In cells and extracts the contact can be indirect. These calls come from enrichment with a bait or labelling near it, and not all partners need be listed.

By UniProt entry, the sequences of proteins in these tests, tags left out.
UniProt P06537: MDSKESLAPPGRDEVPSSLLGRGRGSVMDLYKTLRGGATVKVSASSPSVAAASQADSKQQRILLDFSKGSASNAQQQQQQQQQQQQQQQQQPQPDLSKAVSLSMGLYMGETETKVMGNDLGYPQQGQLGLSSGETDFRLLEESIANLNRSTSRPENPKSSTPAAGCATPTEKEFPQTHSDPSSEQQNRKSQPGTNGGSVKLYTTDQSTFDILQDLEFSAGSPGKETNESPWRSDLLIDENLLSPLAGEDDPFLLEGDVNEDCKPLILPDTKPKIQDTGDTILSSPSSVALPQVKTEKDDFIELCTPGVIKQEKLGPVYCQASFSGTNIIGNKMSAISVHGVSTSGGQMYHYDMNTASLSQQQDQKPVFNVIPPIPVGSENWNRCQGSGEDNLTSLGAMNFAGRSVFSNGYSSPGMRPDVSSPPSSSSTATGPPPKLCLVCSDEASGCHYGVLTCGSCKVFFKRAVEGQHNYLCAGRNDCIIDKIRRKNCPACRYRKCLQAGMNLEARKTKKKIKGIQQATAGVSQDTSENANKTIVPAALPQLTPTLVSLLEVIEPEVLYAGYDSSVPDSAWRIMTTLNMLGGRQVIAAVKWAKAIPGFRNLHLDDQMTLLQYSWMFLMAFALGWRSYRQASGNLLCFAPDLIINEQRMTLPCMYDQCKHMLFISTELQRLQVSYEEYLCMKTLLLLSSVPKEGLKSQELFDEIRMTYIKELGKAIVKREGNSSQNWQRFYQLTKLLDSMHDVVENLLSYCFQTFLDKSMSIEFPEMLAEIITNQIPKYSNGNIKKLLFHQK
UniProt O54941: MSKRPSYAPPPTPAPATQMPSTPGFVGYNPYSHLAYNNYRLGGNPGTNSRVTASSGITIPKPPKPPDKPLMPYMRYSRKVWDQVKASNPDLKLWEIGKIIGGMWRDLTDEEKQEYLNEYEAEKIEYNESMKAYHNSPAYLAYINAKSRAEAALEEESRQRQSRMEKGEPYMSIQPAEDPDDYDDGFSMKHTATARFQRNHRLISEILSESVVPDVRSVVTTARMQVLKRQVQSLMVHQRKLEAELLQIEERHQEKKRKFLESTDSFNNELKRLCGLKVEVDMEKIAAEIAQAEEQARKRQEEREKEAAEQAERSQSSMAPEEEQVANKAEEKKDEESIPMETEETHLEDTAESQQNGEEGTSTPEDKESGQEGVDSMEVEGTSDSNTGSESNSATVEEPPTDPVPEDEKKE
UniProt A2BH40: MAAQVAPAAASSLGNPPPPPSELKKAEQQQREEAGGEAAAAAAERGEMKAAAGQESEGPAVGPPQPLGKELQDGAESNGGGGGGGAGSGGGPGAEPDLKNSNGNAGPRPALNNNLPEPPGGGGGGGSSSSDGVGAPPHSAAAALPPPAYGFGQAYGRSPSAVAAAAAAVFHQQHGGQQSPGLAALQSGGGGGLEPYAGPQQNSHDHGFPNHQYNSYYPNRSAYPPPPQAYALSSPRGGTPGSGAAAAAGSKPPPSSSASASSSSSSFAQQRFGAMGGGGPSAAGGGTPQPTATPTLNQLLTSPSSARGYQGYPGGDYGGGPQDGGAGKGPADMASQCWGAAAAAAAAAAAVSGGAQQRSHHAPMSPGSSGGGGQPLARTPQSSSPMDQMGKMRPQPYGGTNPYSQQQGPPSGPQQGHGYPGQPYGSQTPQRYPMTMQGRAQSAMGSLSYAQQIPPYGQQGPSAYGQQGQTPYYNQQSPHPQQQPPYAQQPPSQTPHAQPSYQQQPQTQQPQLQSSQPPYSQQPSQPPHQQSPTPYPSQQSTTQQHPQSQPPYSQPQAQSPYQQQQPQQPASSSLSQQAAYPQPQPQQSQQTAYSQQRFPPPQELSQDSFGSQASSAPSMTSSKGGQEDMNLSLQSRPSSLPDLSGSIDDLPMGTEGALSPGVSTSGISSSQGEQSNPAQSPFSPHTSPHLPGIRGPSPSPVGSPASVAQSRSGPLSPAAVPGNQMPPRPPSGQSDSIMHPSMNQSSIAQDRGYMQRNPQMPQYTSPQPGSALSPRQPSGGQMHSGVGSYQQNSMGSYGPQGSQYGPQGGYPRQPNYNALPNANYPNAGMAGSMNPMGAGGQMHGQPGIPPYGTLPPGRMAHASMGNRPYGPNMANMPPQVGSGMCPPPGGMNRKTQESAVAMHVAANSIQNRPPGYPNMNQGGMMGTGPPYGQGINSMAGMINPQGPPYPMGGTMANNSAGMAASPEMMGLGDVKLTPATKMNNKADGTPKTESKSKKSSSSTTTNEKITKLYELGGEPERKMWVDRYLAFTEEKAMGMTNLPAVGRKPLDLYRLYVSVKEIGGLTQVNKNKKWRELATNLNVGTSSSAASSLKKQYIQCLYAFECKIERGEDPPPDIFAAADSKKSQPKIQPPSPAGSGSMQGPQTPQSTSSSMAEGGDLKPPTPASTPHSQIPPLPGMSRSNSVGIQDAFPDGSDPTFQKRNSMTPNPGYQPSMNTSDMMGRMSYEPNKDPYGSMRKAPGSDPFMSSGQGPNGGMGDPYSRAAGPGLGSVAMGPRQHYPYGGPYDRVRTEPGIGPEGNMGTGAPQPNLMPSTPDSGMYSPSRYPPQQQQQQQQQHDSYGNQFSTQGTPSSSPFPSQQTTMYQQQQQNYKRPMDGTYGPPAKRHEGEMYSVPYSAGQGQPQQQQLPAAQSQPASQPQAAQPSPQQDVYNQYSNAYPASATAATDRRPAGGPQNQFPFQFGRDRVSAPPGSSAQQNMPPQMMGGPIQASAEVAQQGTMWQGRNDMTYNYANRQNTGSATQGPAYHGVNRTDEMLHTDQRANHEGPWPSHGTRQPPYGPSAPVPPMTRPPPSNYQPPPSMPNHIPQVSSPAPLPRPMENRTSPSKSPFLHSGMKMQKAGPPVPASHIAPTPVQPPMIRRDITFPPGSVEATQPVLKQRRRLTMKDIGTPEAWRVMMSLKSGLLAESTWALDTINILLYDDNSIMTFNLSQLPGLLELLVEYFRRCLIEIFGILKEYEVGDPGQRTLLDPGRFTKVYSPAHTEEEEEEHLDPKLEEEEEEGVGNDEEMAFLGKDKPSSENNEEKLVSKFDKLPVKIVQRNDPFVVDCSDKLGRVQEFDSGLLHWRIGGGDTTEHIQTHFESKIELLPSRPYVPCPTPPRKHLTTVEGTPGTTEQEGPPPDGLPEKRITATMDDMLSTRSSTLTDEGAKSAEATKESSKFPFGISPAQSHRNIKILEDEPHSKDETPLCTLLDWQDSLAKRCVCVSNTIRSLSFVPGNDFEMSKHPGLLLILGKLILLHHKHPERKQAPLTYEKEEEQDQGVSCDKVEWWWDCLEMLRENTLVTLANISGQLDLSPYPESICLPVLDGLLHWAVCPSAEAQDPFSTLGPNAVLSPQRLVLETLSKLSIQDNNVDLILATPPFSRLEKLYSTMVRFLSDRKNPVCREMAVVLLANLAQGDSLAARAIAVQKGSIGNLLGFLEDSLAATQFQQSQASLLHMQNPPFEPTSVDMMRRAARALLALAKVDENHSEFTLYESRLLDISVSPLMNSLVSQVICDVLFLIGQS
UniProt Q99JR8: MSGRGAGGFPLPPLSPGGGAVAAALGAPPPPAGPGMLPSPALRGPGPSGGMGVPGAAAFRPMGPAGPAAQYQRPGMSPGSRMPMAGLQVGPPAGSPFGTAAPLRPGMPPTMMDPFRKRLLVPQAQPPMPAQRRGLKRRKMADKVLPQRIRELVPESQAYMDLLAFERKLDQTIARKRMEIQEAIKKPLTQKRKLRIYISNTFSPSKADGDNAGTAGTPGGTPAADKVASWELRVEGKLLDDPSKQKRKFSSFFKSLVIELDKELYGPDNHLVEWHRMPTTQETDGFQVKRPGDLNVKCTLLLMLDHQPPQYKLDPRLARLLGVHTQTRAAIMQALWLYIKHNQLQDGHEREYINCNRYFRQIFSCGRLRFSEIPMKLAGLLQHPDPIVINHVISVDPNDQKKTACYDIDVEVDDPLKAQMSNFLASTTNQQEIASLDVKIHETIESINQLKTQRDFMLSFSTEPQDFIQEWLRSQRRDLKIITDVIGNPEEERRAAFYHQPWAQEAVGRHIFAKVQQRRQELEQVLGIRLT

target: Glucocorticoid Receptor (mouse (endogenous in primary murine macrophages and RAW264.7)) (UniProt P06537); experiment: affinity purification with mass spectrometry

| Substance | binding |
| --- | --- |
| SMARCE1 (BAF57) (from UniProt O54941 1-411) | binds |
| ARID1A (BAF250) (from UniProt A2BH40 1-2283) | binds |
| SMARCD2 (BAF60B) (from UniProt Q99JR8 1-531) | binds |
